Experimental data reported in PubChem BioAssay AID540276 (National Center for Advancing Translational Sciences (NCATS), 2011).
Several values for one entry are separate records, joined by “and”; a condition that tells them apart may be missing. Identical values can stand only once. Out of some 300,000 compounds screened, about 5,400 (1.8%) were called active. Inconclusive results, whose numbers are uncertain, are shown with a selection of clear calls. Calls come from the whole dose curve; tested in HEK293 cells. A potency beside an inconclusive call is a rough fit, not a confirmed value. The source holds several records for some structures; these can differ, active in one and inactive in another.

Assay: qHTS for inhibitors of binding or entry into cells for Marburg Virus
Conditions: Marburg virus pseudotyped entry inhibition, cell reporter; series mostly up to 37.8 µM
Potency is the fitted concentration of half-maximal effect.

Row | Structure (SMILES) | Potency
1 | Cc1ccccc1Cn1ccc(NC(=O)CCSc2nc(-c3ccco3)cc(C(F)(F)F)n2)n1 | inactive and active: 1.12 µM
2 | Cc1cc(=O)[nH]c(N/N=C/c2c(C)nn(-c3ccccc3Cl)c2Cl)n1 | inconclusive: 1 µM [inhibitor, partial curve, poor fit]
3 | CCC(C)(C)n1nnnc1C(C(C)C)N(CCCO)Cc1cc2cc(C)ccc2[nH]c1=O (centres undefined) | inconclusive: 35.5 µM [inhibitor, single point]
4 | O=C(NC1CCCCCCC1)c1ccc2c(c1)N(Cc1ccc(F)cc1)C(=O)CS2=O (centres undefined) | inconclusive: 9.2 µM [inhibitor, partial curve]
5 | Cc1ccc(NC(=O)N2CCCCCC2)cc1C | inconclusive: 5.62 µM [activator, full curve, poor fit]
6 | Cc1ccccc1NC(=O)Cn1cc(C(=O)c2ccco2)c2ccccc21 | inactive
7 | O=C(CCNC(=O)c1ccc([N+](=O)[O-])cc1)NCCC1=CCCCC1 | inactive
8 | CS(=O)(=O)N1CCC(C(=O)N2CCN(c3ccccc3F)CC2)CC1 | inactive
9 | O=C(Cc1ccccc1)Nc1ccccc1Oc1ccccc1 | inactive
10 | CC(C)CCN(C(=O)CNC(=O)c1ccco1)C(C(=O)NC1CCCCC1)c1ccco1 (centres undefined) | inconclusive: 35.5 µM [inhibitor, single point]
11 | Cc1onc(-c2c(F)cccc2Cl)c1C(=O)NNC(=O)C1CCN(Cc2cccc(F)c2)CC1 | inconclusive: 2.24 µM [activator, partial curve, poor fit]
12 | Cc1ccc(C(=O)COC(=O)CCC(=O)Nc2cc(Cl)ccc2Cl)cc1[N+](=O)[O-] | inconclusive: 2 µM [activator, partial curve, poor fit]
13 | N#Cc1c(-c2ccc(F)cc2)ccnc1N1CCOCC1 | inconclusive: 14.1 µM [activator, single point]
14 | Cc1cc(NC(=O)CCc2nc3cccnc3n2-c2ccccc2)ccc1Br | inconclusive: 35.5 µM [inhibitor, single point]
15 | COCCSc1nnc(NC(=O)c2ccco2)s1 | inactive
16 | Cc1cccc(-c2nnc(NC(=O)c3ccc(N4C(=O)CCC4=O)cc3)s2)c1 | inactive
17 | Cc1ccc(Cl)cc1-c1ccc(C=Nc2ccc(N3CCOCC3)cc2)o1 | inconclusive: 35.5 µM [inhibitor, partial curve, poor fit]
18 | Cn1ccc2c(-c3ccc4c(c3)OCCO4)cc3c(c21)C1CCC3C1 (centres undefined) | inconclusive: 8.87 µM [inhibitor, partial curve, poor fit]
19 | COC(=O)Cn1c(C2CC(=O)N(c3c(C)cccc3C)C2)nc2ccccc21 (centres undefined) | inactive
